The values below come from patent US10048278B2, “Screening for neurotoxic amino acid associated with neurological disorders” (priority 2003, dated 2018).

Where two headings read alike, the source gives them in different places.

On the set-up of the series: species or system Cycas micronesica Hill; key: † = trace amounts; — = not detectable.
Setting [1] is: seed sarcotesta, outer integument layer.
The mark [2] stands for this setting: roots, coralloid, senescent infection.
[3] abbreviates: root, coralloid, heavy infection.

`N[C@@H](CCC(=O)O)C(=O)O` [GLU, glutamic acid]: the “mean concentration in tissue” value (female sporophyll) is on record as “—”; the “mean concentration in tissue” value (leaf mucilage) is given as “—”; the “mean concentration in tissue” value (male sporangia, mature) is “—”; the “mean concentration in tissue” value (seed sarcotesta) is “—”; the “mean concentration in tissue” value under setting [1] is recorded as “—”.

On to `CNC[C@H](N)C(=O)O` [BMAA, β-N-methylamino-L-alanine], for which the “mean concentration in tissue” value runs as follows: (female sporophyll) “—”; (leaf mucilage) “—”; (male sporophyll, mature) “—”; (root, coralloid, non-infected) “—”; (root, non-coralloid) “—”; under setting [2], “—”. The “mean concentration in tissue” value is recorded as “—” (stem, inner cortex); “—” (stem, outer cortex); “—” (stem, xylem).

In the case of `N[C@@H](CNC(=O)C(=O)O)C(=O)O` [BOAA, β-N-oxalyl-amino-L-alanine], the “presence of HPLC peak, not quantified” value is reported as “†” (Leaf); “—” (female sporophyll); “—” (leaf mucilage); “†” (male sporangia, immature); “†” (male sporangia, mature); “—” (male sporophyll, immature). Besides, the “presence of HPLC peak, not quantified” value by setting is: (male sporophyll, mature) “—”; under setting [3], “†”; (root, coralloid, mild infection) “†”; (root, coralloid, non-infected) “†”; (root, non-coralloid) “†”; under setting [2], “—”. Also, the “presence of HPLC peak, not quantified” value (seed gametophyte) is on record as “†”; the “presence of HPLC peak, not quantified” value (seed sarcotesta) was “—”; the “presence of HPLC peak, not quantified” value under setting [1] is on record as “†”; the “presence of HPLC peak, not quantified” value (stem, inner cortex) is “—”; the “presence of HPLC peak, not quantified” value (stem, outer cortex) is reported as “—”; the “presence of HPLC peak, not quantified” value (stem, xylem) was “—”.

Take `NCC(N)C(=O)O` (stereo not shown) [DAP, 2,3-diaminopropionate]: the “presence of HPLC peak, not quantified” value (male sporangia, mature) is “†”; the “presence of HPLC peak, not quantified” value under setting [3] is “†”; the “presence of HPLC peak, not quantified” value (seed gametophyte) is “—”; the “presence of HPLC peak, not quantified” value (seed sarcotesta) was “—”; the “presence of HPLC peak, not quantified” value under setting [1] is “—”.

For the compound `NCCC(N)C(=O)O` (stereo not shown) [DAB, 2,4-diamino butyrate], the “presence of HPLC peak, not quantified” value (Leaf) was “†”; the “presence of HPLC peak, not quantified” value (female sporophyll) is “†”; the “presence of HPLC peak, not quantified” value (male sporangia, mature) is “†”; the “presence of HPLC peak, not quantified” value (seed gametophyte) is given as “—”; the “presence of HPLC peak, not quantified” value (seed sarcotesta) is on record as “—”; the “presence of HPLC peak, not quantified” value under setting [1] was “—”.
